In publication PMC9943647, “Structures of pMV158 replication initiator RepB with and without DNA reveal a flexible dual-function protein” (Nucleic Acids Research, 2023):
The exact form of at least one protein or probe is not confirmed. For part of these data: A weaker result is weaker than the reference pair of the same experiment. For part of these data: Tags and fusion partners may be left off the protein sequences shown.

Key:
[1] = biological target: His-OBD (Streptococcus plasmid pMV158) (UniProt P13921); experiment: DMS footprinting; conditions: 0.6 uM His-OBD; recombinant protein; protein details: N-terminal His-tag
[2] = biological target: T1, RepB OBD (origin binding domain), wt (Streptococcus plasmid pMV158) (UniProt P13921); experiment: EMSA; conditions: faint smear, Kd ND; EMSA: 20 mM Tris-HCl pH 8.0, 5 mM DTT, 300 mM NaCl, 20 nM DNA, 20 min 25 C; footprinting same buffer; recombinant protein; label: 5'-Cy5 (top) for EMSA, 5'-biotin for SPR
T1 sequence (looked up, limits assumed): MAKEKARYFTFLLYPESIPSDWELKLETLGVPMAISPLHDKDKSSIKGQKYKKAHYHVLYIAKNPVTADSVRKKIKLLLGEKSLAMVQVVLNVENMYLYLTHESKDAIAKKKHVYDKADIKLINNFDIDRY

[3] = biological target: His-OBD (Streptococcus plasmid pMV158) (UniProt P13921); experiment: X-ray crystallography; conditions: 3.0 A, 2 OBD per duplex, crystallised with 50 mM MgCl2; recombinant protein; protein details: N-terminal His-tag

## AATCTCGGCGACTTTTCGGCGACTTTTCGGCGACTTTTTAGA (double strand) [3DDR]
[1]
  binding result: binds

## CGGGTCGGTAATTGGGTTT (double strand) [NS]
[2]
  binding result: binds more weakly

## TCGGCGACTTTTCGGCGACTTTT (double strand) [23AB]
[3]
  binding result: binds
